From the supplement of paper PMC11006884
Only a part is listed here, and it is no random draw.

Sequences of proteins named here, by UniProt entry; tags and fusion partners are left off. A change or cut given only in a name is not applied to a line headed by its entry.
UniProt P78527, whole entry, looked up: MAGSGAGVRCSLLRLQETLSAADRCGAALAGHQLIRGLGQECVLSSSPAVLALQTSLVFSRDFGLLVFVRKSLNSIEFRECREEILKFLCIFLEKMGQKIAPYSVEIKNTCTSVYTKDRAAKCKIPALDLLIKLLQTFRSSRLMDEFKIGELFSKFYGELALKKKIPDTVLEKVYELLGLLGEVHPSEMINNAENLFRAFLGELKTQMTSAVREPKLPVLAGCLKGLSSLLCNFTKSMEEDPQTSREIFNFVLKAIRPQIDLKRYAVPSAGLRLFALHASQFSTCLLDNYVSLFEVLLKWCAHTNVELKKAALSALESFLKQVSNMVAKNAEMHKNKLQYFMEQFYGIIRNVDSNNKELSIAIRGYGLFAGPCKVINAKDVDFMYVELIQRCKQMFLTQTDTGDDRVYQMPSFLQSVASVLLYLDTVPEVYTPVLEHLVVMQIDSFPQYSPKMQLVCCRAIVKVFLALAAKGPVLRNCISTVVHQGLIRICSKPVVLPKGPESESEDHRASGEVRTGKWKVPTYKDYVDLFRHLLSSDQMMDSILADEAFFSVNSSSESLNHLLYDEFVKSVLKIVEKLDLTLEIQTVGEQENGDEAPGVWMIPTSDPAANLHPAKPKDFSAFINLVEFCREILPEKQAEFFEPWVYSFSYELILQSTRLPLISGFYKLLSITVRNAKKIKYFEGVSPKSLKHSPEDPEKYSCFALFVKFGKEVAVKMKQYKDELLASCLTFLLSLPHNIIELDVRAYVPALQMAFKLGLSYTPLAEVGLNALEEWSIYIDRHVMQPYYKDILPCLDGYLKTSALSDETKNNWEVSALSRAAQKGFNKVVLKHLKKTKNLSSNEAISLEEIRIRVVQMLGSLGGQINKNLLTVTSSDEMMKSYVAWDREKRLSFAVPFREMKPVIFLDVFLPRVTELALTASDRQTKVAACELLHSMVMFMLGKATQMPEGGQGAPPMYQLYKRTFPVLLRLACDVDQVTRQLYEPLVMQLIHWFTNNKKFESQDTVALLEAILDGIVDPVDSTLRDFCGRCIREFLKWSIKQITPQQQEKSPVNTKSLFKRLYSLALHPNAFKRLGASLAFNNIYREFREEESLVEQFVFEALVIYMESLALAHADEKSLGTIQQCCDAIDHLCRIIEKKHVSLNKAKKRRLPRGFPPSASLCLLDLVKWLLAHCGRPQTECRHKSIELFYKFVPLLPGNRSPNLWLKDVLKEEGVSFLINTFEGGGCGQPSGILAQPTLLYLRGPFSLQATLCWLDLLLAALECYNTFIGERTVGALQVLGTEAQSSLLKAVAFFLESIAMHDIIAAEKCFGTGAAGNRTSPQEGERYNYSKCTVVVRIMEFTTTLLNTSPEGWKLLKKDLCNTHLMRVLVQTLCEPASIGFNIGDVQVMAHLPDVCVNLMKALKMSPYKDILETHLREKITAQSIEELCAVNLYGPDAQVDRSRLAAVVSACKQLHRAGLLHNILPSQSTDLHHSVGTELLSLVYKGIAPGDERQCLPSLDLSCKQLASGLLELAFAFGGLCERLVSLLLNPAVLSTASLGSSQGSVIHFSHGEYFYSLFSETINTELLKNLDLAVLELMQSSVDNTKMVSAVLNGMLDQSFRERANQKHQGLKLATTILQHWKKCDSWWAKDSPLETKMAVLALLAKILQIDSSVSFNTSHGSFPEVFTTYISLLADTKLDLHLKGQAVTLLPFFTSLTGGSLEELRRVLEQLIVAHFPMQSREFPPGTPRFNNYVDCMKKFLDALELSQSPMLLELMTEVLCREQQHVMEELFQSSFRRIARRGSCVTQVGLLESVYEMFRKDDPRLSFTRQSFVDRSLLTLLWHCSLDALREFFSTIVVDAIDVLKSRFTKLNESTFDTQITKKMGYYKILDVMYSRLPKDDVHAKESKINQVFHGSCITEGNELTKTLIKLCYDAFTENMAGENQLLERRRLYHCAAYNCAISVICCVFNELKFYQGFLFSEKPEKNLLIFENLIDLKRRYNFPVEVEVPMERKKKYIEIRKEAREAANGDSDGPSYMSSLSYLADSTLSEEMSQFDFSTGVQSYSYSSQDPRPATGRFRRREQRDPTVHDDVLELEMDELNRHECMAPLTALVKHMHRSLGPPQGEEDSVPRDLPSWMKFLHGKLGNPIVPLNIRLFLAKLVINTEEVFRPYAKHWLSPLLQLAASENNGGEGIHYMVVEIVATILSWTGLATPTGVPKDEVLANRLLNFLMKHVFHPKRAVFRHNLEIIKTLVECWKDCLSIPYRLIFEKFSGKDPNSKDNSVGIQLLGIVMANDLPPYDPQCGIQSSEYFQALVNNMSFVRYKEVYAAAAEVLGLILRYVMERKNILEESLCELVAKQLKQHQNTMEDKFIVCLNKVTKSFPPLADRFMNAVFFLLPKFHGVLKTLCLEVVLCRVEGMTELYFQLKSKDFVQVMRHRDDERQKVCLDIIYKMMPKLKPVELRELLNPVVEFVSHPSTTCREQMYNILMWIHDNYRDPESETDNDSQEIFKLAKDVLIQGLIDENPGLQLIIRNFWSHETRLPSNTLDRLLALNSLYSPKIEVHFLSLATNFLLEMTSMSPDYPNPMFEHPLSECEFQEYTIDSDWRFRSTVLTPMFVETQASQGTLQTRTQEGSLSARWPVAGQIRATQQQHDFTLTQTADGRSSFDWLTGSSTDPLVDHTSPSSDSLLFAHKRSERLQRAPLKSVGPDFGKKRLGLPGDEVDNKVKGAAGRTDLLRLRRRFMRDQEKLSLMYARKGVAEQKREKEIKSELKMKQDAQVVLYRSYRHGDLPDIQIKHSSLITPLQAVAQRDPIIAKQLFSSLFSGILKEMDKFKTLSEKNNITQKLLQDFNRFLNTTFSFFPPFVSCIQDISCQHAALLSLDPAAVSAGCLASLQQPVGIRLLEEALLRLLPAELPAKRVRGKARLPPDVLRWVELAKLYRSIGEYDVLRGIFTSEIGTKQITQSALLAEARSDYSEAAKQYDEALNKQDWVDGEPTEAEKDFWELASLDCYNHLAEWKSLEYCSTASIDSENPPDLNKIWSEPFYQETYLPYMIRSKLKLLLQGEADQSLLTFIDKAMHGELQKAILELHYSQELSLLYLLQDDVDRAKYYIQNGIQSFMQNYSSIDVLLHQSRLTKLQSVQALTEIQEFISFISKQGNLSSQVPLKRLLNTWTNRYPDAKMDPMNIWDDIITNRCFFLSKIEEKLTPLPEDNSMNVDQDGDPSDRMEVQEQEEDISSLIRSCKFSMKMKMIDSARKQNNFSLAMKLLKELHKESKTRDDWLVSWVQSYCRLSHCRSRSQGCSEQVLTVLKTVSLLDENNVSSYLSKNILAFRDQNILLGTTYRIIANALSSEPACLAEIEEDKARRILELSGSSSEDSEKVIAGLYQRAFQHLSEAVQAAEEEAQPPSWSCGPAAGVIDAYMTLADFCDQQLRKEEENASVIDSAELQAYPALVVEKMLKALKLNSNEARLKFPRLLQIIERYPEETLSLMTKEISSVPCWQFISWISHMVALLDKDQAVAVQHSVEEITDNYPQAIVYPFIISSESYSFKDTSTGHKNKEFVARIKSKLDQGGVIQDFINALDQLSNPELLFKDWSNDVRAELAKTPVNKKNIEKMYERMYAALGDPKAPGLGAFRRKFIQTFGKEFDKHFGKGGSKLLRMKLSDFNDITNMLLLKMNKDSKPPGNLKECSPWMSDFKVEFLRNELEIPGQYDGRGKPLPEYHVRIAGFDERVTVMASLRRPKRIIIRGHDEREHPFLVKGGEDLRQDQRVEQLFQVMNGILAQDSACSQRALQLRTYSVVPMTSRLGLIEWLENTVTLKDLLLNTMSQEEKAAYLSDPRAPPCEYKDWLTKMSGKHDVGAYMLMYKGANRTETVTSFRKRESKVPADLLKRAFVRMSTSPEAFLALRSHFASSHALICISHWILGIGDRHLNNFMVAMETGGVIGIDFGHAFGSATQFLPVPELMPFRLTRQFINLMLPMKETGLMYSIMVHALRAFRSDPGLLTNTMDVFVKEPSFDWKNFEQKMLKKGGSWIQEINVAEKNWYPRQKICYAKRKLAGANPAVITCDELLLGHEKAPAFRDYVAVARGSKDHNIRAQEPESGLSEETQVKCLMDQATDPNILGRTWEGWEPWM
UniProt P68363, whole entry, looked up: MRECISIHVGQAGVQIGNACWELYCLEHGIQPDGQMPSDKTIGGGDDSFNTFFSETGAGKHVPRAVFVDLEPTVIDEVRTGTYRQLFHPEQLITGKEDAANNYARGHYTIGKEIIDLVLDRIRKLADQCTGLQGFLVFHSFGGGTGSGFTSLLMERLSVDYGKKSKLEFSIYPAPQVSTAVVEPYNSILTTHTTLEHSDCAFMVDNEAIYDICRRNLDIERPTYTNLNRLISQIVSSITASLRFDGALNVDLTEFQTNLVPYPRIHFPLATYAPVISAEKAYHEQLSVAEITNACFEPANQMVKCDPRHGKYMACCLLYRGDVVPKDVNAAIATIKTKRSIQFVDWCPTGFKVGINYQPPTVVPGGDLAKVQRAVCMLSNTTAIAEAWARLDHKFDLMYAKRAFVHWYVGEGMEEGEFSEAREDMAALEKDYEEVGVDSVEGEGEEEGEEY
UniProt P62937, whole entry, looked up: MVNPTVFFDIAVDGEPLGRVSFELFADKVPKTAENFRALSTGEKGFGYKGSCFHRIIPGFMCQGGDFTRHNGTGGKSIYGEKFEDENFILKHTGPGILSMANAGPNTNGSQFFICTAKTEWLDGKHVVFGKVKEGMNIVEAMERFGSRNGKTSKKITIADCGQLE
UniProt P63279, whole entry: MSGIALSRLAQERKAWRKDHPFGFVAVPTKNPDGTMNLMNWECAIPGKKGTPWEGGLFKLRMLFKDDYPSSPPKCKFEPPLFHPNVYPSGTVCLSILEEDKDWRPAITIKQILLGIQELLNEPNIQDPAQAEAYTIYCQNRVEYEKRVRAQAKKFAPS
UniProt Q00610: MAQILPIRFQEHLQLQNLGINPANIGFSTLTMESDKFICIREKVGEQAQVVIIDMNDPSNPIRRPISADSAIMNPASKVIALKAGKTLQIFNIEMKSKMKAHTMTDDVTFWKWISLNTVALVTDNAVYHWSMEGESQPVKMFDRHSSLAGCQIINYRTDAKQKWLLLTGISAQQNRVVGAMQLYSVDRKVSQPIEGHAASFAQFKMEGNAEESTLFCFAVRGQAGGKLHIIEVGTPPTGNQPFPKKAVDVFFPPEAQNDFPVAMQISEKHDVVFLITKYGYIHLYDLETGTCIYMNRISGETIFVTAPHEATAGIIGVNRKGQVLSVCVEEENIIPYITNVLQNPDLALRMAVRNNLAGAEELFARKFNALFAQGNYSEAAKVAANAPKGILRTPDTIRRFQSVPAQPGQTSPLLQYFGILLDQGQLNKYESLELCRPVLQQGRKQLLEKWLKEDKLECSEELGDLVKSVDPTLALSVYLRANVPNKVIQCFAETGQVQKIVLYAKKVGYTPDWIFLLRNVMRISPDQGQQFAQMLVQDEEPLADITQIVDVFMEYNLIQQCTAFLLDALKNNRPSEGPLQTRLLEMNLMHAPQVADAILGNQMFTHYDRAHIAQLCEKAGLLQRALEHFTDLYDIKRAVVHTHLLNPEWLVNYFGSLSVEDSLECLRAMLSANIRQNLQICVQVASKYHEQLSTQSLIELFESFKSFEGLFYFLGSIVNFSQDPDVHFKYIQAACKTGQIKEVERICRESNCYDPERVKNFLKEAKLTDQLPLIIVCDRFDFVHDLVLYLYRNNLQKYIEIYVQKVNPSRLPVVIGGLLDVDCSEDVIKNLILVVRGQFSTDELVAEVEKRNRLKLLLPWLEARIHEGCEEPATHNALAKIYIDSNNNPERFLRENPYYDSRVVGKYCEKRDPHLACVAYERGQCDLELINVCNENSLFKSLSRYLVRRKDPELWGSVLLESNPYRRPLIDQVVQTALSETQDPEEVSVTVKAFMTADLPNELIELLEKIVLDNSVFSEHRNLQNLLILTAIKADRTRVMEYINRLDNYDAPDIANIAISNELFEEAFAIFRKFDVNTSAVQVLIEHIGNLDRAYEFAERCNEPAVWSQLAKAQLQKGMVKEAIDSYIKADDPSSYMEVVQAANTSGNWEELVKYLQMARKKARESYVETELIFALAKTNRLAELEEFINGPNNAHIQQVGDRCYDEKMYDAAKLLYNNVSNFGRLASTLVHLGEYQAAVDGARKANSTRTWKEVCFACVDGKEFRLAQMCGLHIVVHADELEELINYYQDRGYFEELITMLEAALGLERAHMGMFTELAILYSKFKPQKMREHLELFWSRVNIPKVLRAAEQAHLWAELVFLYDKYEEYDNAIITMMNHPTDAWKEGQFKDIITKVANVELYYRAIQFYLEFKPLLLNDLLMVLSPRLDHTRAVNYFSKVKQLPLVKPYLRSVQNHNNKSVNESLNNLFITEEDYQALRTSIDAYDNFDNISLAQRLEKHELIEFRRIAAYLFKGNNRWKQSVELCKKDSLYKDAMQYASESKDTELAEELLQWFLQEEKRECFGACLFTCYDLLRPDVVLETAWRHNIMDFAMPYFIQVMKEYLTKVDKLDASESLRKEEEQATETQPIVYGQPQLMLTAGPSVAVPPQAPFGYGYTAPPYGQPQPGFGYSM

These targets were tested with COC(=O)C#Cc1ccccc1 [methyl 3-phenylpropiolate] (assay: log2 ratio of iodoacetamide-alkyne labeling of the cysteine site, DMSO over compound (competition); higher = stronger covalent engagement of the cysteine by the compound, active = 1 or more). Conditions: 500 µM; treatment time 1 h; system: HEK293T cell lysate.
In short: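 After 1 h at ambient temperature with vehicle or electrophile (500 µM), HEK293T lysate (2 mg/mL) was labelled for 1 h with iodoacetamide alkyne and clicked to sCIP-TMT reagents. Pooled samples were trypsin-digested overnight at 37 °C, streptavidin-enriched, acid-eluted and analysed by Orbitrap Eclipse LC-MS/MS with FAIMS, then quantified in FragPipe over three replicates with duplicate channels. A cysteine's log2 competition ratio is its mean control-channel over mean compound-channel reporter intensity. Cysteines quantified in only one replicate were not included.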

Target	log2 ratio of iodoacetamide-alkyne labeling
EEF1A1 C111 (UniProt P68104)	inactive: -0.0043
UniProt P78527_C3281	inactive: 0.287
UniProt P83731_C36	inactive: 0.753
HNRNPU C594 (UniProt Q00839)	inactive: 0.152
UniProt P68363_C295	inactive: 0.466
HNRNPU C648 (UniProt Q00839)	inactive: 0.201
UniProt Q00341_C948	inactive: 0.167
P86790_C471 (UniProt P86791+P86790)	inactive: 0.369
CCT2 C395 (UniProt P78371)	inactive: -0.0576
UniProt P78527_C25	inactive: 0.3
SPTBN1 C624 (UniProt Q01082)	inactive: -0.122
PPIA C62 (UniProt P62937)	inactive: 0.124
EXOSC10 C651 (UniProt Q01780)	inactive: 0.327
TFAM C246 (UniProt Q00059)	inactive: 0.0252
UniProt P68363_C20	inactive: 0.341
UniProt P62753_C12	inactive: 0.196
KIF23 C135 (UniProt Q02241)	inactive: 0.273
PPP2CA C269 (UniProt P67775)	inactive: -0.168
UniProt P62854_C77	inactive: 0.434

Target	log2 ratio of iodoacetamide-alkyne labeling
UniProt P68363_C316	inactive: 0.118
UniProt P78527_C703	inactive: -0.0289
UniProt P63279_C138	inactive: 0.294
UniProt P62851_C59	inactive: 0.00851
RPL10A C66 (UniProt P62906)	inactive: -0.0142
UniProt P78527_C4106	inactive: 0.838
UniProt P63167_C56	inactive: 0.0644
UniProt P78527_C1904	inactive: 0.286
UniProt P62263_C85	inactive: 0.0387
UniProt P62280_C60	active: 2.21
PURA C292 (UniProt Q00577)	inactive: 0.202
CNBP C161 (UniProt P62633)	inactive: 0.05
UniProt P78527_C1229	inactive: 0.0957
OTUD4 C903 (UniProt Q01804)	inactive: 0.488
CLTC C753 (UniProt Q00610)	inactive: 0.211
AMPD2 C310 (UniProt Q01433)	inactive: 0.446
CLTC C1205 (UniProt Q00610)	inactive: 0.0154
CLTC C926 (UniProt Q00610)	inactive: -0.0468

Reprinted from the listing (3 entries):
Target	log2 ratio of iodoacetamide-alkyne labeling
UniProt P68363_C316	inactive: 0.118
UniProt P78527_C703	inactive: -0.0289
UniProt P63279_C138	inactive: 0.294
